# Percent effect of library compounds

Protein sequences, listed by entry. Tags and fused reporters are not part of them.
UniProt P9WPC5, whole entry: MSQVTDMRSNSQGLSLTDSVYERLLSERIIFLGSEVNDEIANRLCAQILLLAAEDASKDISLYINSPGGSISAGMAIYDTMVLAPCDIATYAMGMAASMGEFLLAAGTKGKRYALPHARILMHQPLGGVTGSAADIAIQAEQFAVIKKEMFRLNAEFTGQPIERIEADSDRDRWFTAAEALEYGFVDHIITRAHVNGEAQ
UniProt P9WPC3, whole entry partner: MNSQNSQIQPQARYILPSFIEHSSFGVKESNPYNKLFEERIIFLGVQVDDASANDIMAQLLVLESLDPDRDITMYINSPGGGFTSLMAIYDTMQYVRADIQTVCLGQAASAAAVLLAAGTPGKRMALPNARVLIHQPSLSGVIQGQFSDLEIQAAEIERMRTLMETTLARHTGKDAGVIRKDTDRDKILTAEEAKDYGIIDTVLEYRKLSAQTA

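Protease assay of ClpP1P2, read by the AMC dye that it sets free. Target: ClpP1P2, Mycobacterium tuberculosis (UniProt P9WPC5 and UniProt P9WPC3). Concentration: 50 µM. Direction is inferred from only a few compounds that gave an IC50; most scored high, so higher reads as stronger inhibition. Most other retested compounds had strongly negative values. Size under these conditions: about 69,000 compounds, about 10 of them at 50% or above in at least one test.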

Values are the deposited “Percent Effect”, in %.
The controls that fix the scale are not given in the record; negative values are as filed.
The compounds are a random part of those screened.

Result for COc1ccc2cc(NC(=O)CCNc3ncccn3)cnc2c1 was -11.69%.
Result for CS(=O)(=O)CCCN1CCOC2(CCc3ccccc32)C1 (configuration not stated) was -7.099%.
Result for Cc1ccc(C(=O)NC2CCCN(S(C)(=O)=O)C2)c(=O)[nH]1 (configuration not stated) was 19.35%.
Result for COc1c(C2CCCN2Cc2nnc(C3CC3)n2C)c(C)nn1C (configuration not stated) was -3.066%.
Result for Cc1ccc(C(=O)N2CCCCC2CNC(N)=O)s1 (configuration not stated) was -5.163%.
Result for O=C(C1CCCC1)N1CCCC(c2cccc(-n3ccnc3)n2)C1 (configuration not stated) was 12.1%.
Result for O=C(COCc1ccccc1)N1CCCC(n2cncn2)C1 (configuration not stated) was 4.789%.
Result for CC(O)CN1CCC(CNCc2ccc(C(N)=O)cc2)CC1 (configuration not stated) was -26.29%.
Result for Cc1ccc(-c2nnc(CN3CCOC(Cn4cccn4)C3)o2)cc1 (configuration not stated) was -1.691%.
Result for CC1(C)COCCN1C(=O)CCc1nc(-c2ccncc2)no1 was 2.425%.
Result for Cc1nc(-c2cccc(N3CCC(NC4CCOCC4)CC3)c2)cs1 was -7.558%.
Result for CSc1ncccc1C(=O)N1C[C@H]2CC[C@@H]1CN(c1cnccn1)C2 was -8.603%.
Result for CCN1CC2(CC1=O)CN(Cc1ccncc1)CCN(C(=O)C(C)C)C2 (configuration not stated) was 19.53%.
Result for CCC(CC)C(O)CNC(=O)Nc1cccc(-c2nccn2C)c1 (configuration not stated) was 0.573%.
Result for CCNc1nc(-c2cccnc2)c(-c2ccnc(NS(C)(=O)=O)n2)s1 was 4.067%.
Result for CCN1CCC2(COCc3cnc(-c4cccnc4)nc32)C1 (configuration not stated) was -3.333%.
Result for Cc1ccc(S(=O)(=O)n2ccn(C(=O)COc3ccccc3)c2=O)cc1 was -10.06%.
Result for COc1cccc(C(=O)C2CCCN(c3cc(C#N)ccn3)C2)c1 (configuration not stated) was -17.94%.
Result for COCCN1C[C@H]2CC[C@@H]1CN(C(=O)c1ccc(Cl)cc1)C2 was 2.806%.
Result for c1cnc(N2CCOCC3(CCCN(CC4CCOCC4)C3)C2)nc1 (configuration not stated) was 3.425%.
Result for COCC(=O)N1CCC(c2nc3ccc(-c4ccncc4)cn3n2)CC1 was 5.294%.
Result for Cc1nc(-c2ccc(C(=O)O)cc2)cc(C2CCN(C(C)C)C2)n1 (configuration not stated) was 5.896%.
Result for CC(C)CCNC(=O)c1csc(NC2CC2)n1 was 2.127%.
Result for Cc1cc(C(=O)N2C[C@H](CO)C[C@H](CN3CCOCC3)C2)nc(C)n1 was -11.34%.
Result for CNC(=O)c1cn(C)c(-c2nc3cc(NC(C)=O)ccc3n2C)c1OC was -13.75%.
Result for CCOCC(=O)Nc1cccnc1-n1ccnc1C was 4.129%.
Result for Cc1cccc(NS(=O)(=O)c2cnn(C)c2)c1C#N was 6.089%.
Result for CN(Cc1nccn1C)S(=O)(=O)N1CCCC1c1ccco1 (configuration not stated) was -11.14%.
Result for Cc1ccc2nc(CN(Cc3ccc(C)o3)C(C)C)cc(=O)n2c1 was 3.139%.
Result for O=C(c1cnn[nH]1)N(CCCO)Cc1cccnc1 was -4.046%.

The first 3 entries again:

COc1ccc2cc(NC(=O)CCNc3ncccn3)cnc2c1 gave -11.69%.
CS(=O)(=O)CCCN1CCOC2(CCc3ccccc32)C1 (configuration not stated) gave -7.099%.
Cc1ccc(C(=O)NC2CCCN(S(C)(=O)=O)C2)c(=O)[nH]1 (configuration not stated) gave 19.35%.

Source: ChEMBL document CHEMBL3988442, “University of Dundee, Small-Polar-MMV Screening Library” (2021).